The target of assay [1] is T1, MHC-B muscle myosin motor domain (residues 1–790) (C. elegans) (UniProt P02566).
T1 sequence: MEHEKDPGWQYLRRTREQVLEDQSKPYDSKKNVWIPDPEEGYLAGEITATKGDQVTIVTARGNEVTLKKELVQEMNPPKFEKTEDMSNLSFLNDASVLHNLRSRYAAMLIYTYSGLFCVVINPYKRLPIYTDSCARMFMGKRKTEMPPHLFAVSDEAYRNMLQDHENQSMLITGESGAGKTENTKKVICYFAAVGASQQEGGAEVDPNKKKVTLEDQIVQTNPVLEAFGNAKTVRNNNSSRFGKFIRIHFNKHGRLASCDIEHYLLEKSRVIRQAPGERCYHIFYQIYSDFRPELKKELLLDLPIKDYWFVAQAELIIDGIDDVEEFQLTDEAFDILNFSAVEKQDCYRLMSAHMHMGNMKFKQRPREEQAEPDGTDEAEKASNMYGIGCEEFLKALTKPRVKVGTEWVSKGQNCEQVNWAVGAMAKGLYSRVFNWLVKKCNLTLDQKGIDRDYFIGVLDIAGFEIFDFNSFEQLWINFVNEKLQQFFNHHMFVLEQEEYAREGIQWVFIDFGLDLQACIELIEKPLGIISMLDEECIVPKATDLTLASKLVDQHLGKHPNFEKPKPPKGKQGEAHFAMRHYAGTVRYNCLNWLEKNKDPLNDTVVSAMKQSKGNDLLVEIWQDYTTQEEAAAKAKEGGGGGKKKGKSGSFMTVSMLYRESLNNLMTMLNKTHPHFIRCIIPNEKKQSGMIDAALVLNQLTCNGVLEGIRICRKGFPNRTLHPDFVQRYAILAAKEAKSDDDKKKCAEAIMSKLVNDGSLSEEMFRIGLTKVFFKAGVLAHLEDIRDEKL
The assay can be described thus: SEC; MHC-B after NiNTA on Superdex 200 5/150 GL, 50 mM Tris pH 7.5, 150 mM NaCl; both purified.

In assay [2] the target is UNC-45 L822F (ts mutant, bacterial) (C. elegans) (UniProt G5EG62). The assay can be described thus: crystal structure; UNC-45 mutant crystals grown by sitting drop vapor diffusion at 19 °C; both purified.

No constants are given. Whether binding was seen depends on the method and setting. Some binding calls cover weakened binding; strength is not graded here.

B1: MHC-B muscle myosin motor domain (residues 1–790) (domain or fragment, C. elegans, UniProt P02566 1-790, looked up)
chain: T1 sequence
notes: C. elegans body wall muscle myosin II heavy chain isoform B (MHC-B, UNC-54), motor domain, residues 1-790, cloned from C. elegans cDNA; In the SEC assays with UNC-45 the protein was heat-damaged (unfolded or misfolded) at 27 °C; Two vectors (pFastBac DUAL, pACEBac1) encode the same 1-790 His6 protein; also called myosin II heavy chain isoform B; UNC-54; source: High Five insect cells, …
Turning to B1, the binding entry in assay [1] was “no binding”.

B2: UNC-45 L822F (ts mutant, bacterial) (protein, UniProt G5EG62 1-961)
chain: MVARVQTAEEIRDEGNAAVKDQDYIKADELYTEALQLTTDEDKALRPVLYRNRAMARLKRDDFEGAQSDCTKALEFDGADVKALFRRSLAREQLGNVGPAFQDAKEALRLSPNDKGIVEVLQRLVKANNDKIKQTTSLANKVTDMEKLAFRGEAKDTEQKMTALNNLLVLCRESESGATGVWNQGALVPFVLNLINDASENEEVTVTAIRILDETIKNSVRCMKFLAMHDPDGPKSVRFVCRLMCKKSTKDFVDATGILVQRVFNAMAKMDRQKEMKPDPEVAEANKIWIIRVLLELQEMLQDPKVGAVQRETCIDLFLKNLMHMDGGIPRGWSWKFVEERGLLALLDVASQIPELCEYPVSAETRQHVAICLQRLEEDMVFDTKRTIFKEKVDMFFNALISRCTNDDEGHKYRIKLSCFLITMLQGPVDIGINLITNDQLTPIMLEMAASQDHLMQGIAAELIVATVSKHERAINMLKVGIPVLRALYDSEDPTVKVRALVGLCKIGAAGGDDISKATMKEEAVISLAKTCKKFLLETEKYSVDIRRYACEGLSYLSLDADVKEWIVDDSLLLKALVLLAKKAGALCVYTLATIYANLSNAFEKPKVDEEMVKLAQFAKHHVPETHPKDTEEYVEKRVRALVEEGAVPACVAVSKTESKNALELIARSLLAFAEYEDLRGRIIAEGGTVLCLRLTKEASGEGKIKAGHAIAKLGAKADPMISFPGQRAYEVVKPLCDLLHPDVEGKANYDSLLTLTNLASVSDSIRGRILKEKAIPKIEEFWFMTDHEHLRAAAAELLLNLLFFEKFYEETVAPGTDRLKFWVLYSAEVEEERLSRASAAGFAILTEDENACARIMDEIKSWPEVFKDIAMHEDAETQRRGLMGIANIMHSSNKLCSEIVSSEVFRVLVAVTKLGTINQERAGSTEQAKRGLEAAEKFGLIKATDREIYERENQMSTIQE
As to B2, in assay [2], the binding result is on record as “binds”.

For the origin of these results see paper PMC6803673, “Molecular features of the UNC-45 chaperone critical for binding and folding muscle myosin” (Nature Communications, 2019).
